Results from PMC2065866.
No constants are given. Whether binding was seen depends on the method and setting. Tags and fused reporters may be left off the sequences shown.

Biological target: second bromodomain of Brd2 (Brd2 BD2), His-tagged (human)
Test: NMR titration; 15N-labelled Brd2 BD2 or mutant (0.2-1.0 mM) titrated with peptide (stocks 55-100 mM); 1H-15N HSQC at 298 K; 50 mM phosphate pH 5.8, 50 mM NaCl, 1 mM DTT, 1 mM EDTA; both purified

binding: no binding
B1: H2B-AcK5 peptide (residues 1-12 of histone H2B, acetylated at Lys 5) (peptide)
peptide: SDPAKSAPAPKK
modifications: N-epsilon-acetyl-lysine at Lys 5
